Laboratory results as given in PubChem BioAssay AID1347075 (National Center for Advancing Translational Sciences (NCATS), 2019).
Hit rate of the full screen: of about 400,000 compounds, about 5,500 (1.4%) were called active. The inconclusive results got no clear call from the source; some entries with a clear call stand among them for comparison. Calls come from the whole dose curve; as a rule, active = well fitted cell-killing curve with a large enough effect; inconclusive = small, poorly fitted or top-dose-only effect, or effect the other way; inactive = flat fitted curve, though single readings scatter. A potency beside an inconclusive call is a rough fit, not a confirmed value. Some compounds were tested as several samples or in several runs, with calls that do not always agree.

Assay: qHTS assay for MDR1-selective chemotherapeutics: Primary screen using the parental adenocarcinoma cell KB-3-1; note: nearly all actives have a fitted effect of over 60% in size
Settings: KB-3-1 viability, CellTiter-Glo ATP luminescence, 72 h; activity change, negative = cytotoxic: at 46.1 µM (top of the series)
In short: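 Luminescent ATP read-out (CellTiter-Glo) measures survival of drug-naive KB-3-1 cells after 72 h compound exposure at 37 °C. Titration series was screened from lowest to highest concentration, with DMSO vehicle plates as background controls.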
% is set by controls: 0 for no effect and ±100 for the full control effect; potency is the fitted concentration of half-maximal effect.

| Structure (SMILES) | Potency | activity change, negative = cytotoxic |
| --- | --- | --- |
| CCOC(=O)c1cnn(-c2ncnc3c2oc2ccccc23)c1N | inconclusive: 16.4 µM [rising, partial curve] |  |
| CC(=O)Nc1ccccc1OCC(=O)c1cc(C)n(Cc2cccs2)c1C | active: 4.61 µM |  |
| Clc1ccc2c(N/N=C/c3cccc(Br)c3)ccnc2c1 | inconclusive: 29.1 µM [cytotoxic, single point] |  |
| COc1cccc(CNc2ccc([N+](=O)[O-])cc2C)c1 |  | inactive: -4.06% |
| C#CCOc1ccc(/C=N/O)cc1Cl | inconclusive: 29.1 µM [cytotoxic, single point] |  |
| Cc1cc(Br)ccc1NC(=O)COc1cc(=O)n(C)c2ccccc12 |  | inactive: 2.76% |
| Cc1ccc(NC(=S)N(Cc2cccs2)Cc2cc3cc(C)ccc3[nH]c2=O)cc1 | inconclusive: 20.6 µM [cytotoxic, single point] |  |
| CCOc1ccc(NC(=O)CN2C(=O)NC(C)(c3ccc(OC(F)F)cc3)C2=O)cc1 (configuration not stated) | inconclusive: 18.4 µM [cytotoxic, partial curve, poor fit] |  |
| CCc1nc(N)nc(N)c1-c1ccc(Cl)c(N=[N+]=[N-])c1 | active: 11.6 µM |  |
| COC(=O)c1cnn(-c2ccc(Cl)cc2)c1/C=N/NC(N)=S | inconclusive: 7.31 µM [cytotoxic, partial curve] |  |
| COc1ccc(Cl)cc1Cn1c(C)c(C(=O)NCc2ccc(F)cc2)sc1=O | inconclusive: 20.6 µM [cytotoxic, single point] |  |
| O=C(CN1C(=O)C2CC=CCC2C1=O)Nc1ccc(F)cc1F (configuration not stated) |  | inactive: 8.96% |
| CCN(CC)S(=O)(=O)c1ccc2nc(NC(=O)c3ccccc3OC)sc2c1 |  | inactive: 0.61% |
| O=C(NCC1CC1)c1cc2c(c(-c3cccc(-c4ccccc4F)c3)n1)[C@@H](CCO)N(C(=O)CC1CC1)C2 |  | inactive: 1.92% |
| Cc1c(C(=O)NCc2ccc(Cl)c(Cl)c2)sc(=O)n1Cc1ccc(S(=O)(=O)N(C)C)cc1 | active: 8.2 µM |  |
| COc1ccccc1NC(=S)N(Cc1ccco1)Cc1cc2cc(C)ccc2[nH]c1=O | active: 1.84 µM |  |
| CCCCN(C(=O)c1cc(S(=O)(=O)N2CCCCCC2)ccc1OC)c1c(N)n(CCC)c(=O)[nH]c1=O | inconclusive: 23.1 µM [rising, single point] |  |
| CC(C)NS(=O)(=O)c1cc(C(F)(F)F)ccc1/C=C/C(=O)O |  | inactive: 4.52% |
| COc1cc(NC(=O)CN(C)C2CCCCC2)c(C)cc1[N+](=O)[O-] |  | inactive: -12.4% |
| CN(CC(=O)Nc1ccc(S(=O)(=O)N2CCCC2)cc1)Cc1c(F)cccc1Cl | inconclusive: 29.1 µM [cytotoxic, single point] |  |
| Cc1[nH]c2c(Cl)cccc2c(=O)c1CN1CCCCCC1 |  | inconclusive: 31.8% |
| CCN(CC(=O)Nc1ccc(NC(C)=O)cc1)C(=O)COc1ccc2ccccc2c1 |  | inactive: -5.14% |
| NC(=NCCc1c[nH]c2ccccc12)NC(=O)c1ccc(F)cc1 |  | inactive: 4.45% |
| COc1ccc2c(c1)C=C/C2=C\c1ccc(N(C)C)cc1 | inconclusive: 32.6 µM [cytotoxic, single point] |  |

| Structure (SMILES) | Potency | activity change, negative = cytotoxic |
| --- | --- | --- |
| Cc1ccc(S(=O)(=O)N[C@@H](Cc2ccccc2)C(=O)CCl)cc1 | inconclusive: 23.1 µM [cytotoxic, single point] |  |
| CC(Nc1ncnc2sccc12)c1ccccc1 (configuration not stated) | inconclusive: 1.46 µM [cytotoxic, full curve] |  |
| CC(C)c1nc(SCC(=O)Nc2nccs2)c2ccccc2n1 |  | inactive: -3.1% |
| CSCCNC(=O)C1(C)CCN1C(=O)C/C=C/c1ccccc1 (configuration not stated) |  | inactive: 7.39% |
| Cc1cc(-c2cc(C(=O)O)c3ccccc3n2)c(C)s1 | inconclusive: 20.6 µM [cytotoxic, partial curve, poor fit] |  |
| Cc1cccc(NC(=S)NCCc2c[nH]c3ccccc23)c1 |  | inactive: -11.9% |
| CCN1CCN(C(=O)c2cc(COc3ccc(F)cc3F)on2)[C@@H](C)C1=O | inconclusive: 32.6 µM [cytotoxic, single point] |  |
| Cn1cccc1/C=C1\SC(=S)N(NC(=O)c2ccccc2)C1=O |  | inactive: -2.67% |
| O=C(CCN1CCN(c2ccccc2)CC1)NNC(=O)c1ccccc1 |  | inactive: -3.96% |
| Cn1cc(/C=C/c2ccnc3ccccc23)c2ccccc21 | inconclusive: 20.6 µM [cytotoxic, single point] |  |
| CC(/C=C/c1ccc(C)o1)=C\C(=O)O |  | inactive: 2.77% |
| C=CC[C@@H](CC(=O)N[C@@H](CO)Cc1ccccc1)C(=O)N[C@@H](COC(=O)[C@H](CC=C)CC(=O)OC(C)(C)C)Cc1c[nH]c2ccccc12 | inconclusive: 29.1 µM [cytotoxic, single point] |  |
| Cc1ccc(NC(=O)CCSc2nc(-c3ccc4c(c3)OCO4)cc(C(F)(F)F)n2)cc1 | inconclusive: 8.2 µM [cytotoxic, partial curve, poor fit] |  |
| Cc1ccc(-n2c(Cc3cccn3C)nnc2SCC(=O)NCc2ccc3c(c2)OCO3)cc1 | inconclusive: 18.4 µM [rising, partial curve, poor fit] |  |
| COC(=O)[C@]12CCCCC=C1N(CCc1ccc(OC)c(OC)c1)C(=O)[C@H](CC(=O)N1CCOCC1)C2 |  | inactive: 16.5% |
| CC(C)(c1ccc(O)cc1)c1ccc(O)c(C(=O)O)c1 |  | inactive: 3.23% |
| CN(C)c1ccccc1C(=O)c1ccccc1N(C)C | active: 4.61 µM |  |
| CCOc1ccc(CSCCNC(=S)Nc2ccc(OC)cc2)cc1 | inconclusive: 29.1 µM [cytotoxic, single point] |  |
| Cc1ccc(S(=O)(=O)N2CCC(=O)N(C(COCc3cccc(Cl)c3)C(C)C)CC2)cc1 (configuration not stated) | inconclusive: 20.6 µM [cytotoxic, single point] |  |
| CC(=O)Nc1ccc(NC(=O)CSc2ccc(-c3cccnc3)nn2)cc1 |  | inactive: 0% |
| COc1ccc(OCc2cc(C(=O)NCCc3ccccc3)no2)c(Cl)c1 | inconclusive: 29.1 µM [cytotoxic, single point] |  |
| Cc1ccc2nc3cc([N+](=O)[O-])cc([N+](=O)[O-])c3cc2c1 | inconclusive: 3.26 µM [cytotoxic, partial curve, poor fit] |  |
| CCC[C@@H]1C=C(C(=O)OCC)[C@H](c2ccccc2)N1S(=O)(=O)c1ccc(C)cc1 | inconclusive: 29.1 µM [cytotoxic, single point] |  |

An excerpt of the results above:

| Structure (SMILES) | Potency | activity change, negative = cytotoxic |
| --- | --- | --- |
| O=C(NCC1CC1)c1cc2c(c(-c3cccc(-c4ccccc4F)c3)n1)[C@@H](CCO)N(C(=O)CC1CC1)C2 |  | inactive: 1.92% |
| Cc1c(C(=O)NCc2ccc(Cl)c(Cl)c2)sc(=O)n1Cc1ccc(S(=O)(=O)N(C)C)cc1 | active: 8.2 µM |  |
| COc1ccccc1NC(=S)N(Cc1ccco1)Cc1cc2cc(C)ccc2[nH]c1=O | active: 1.84 µM |  |
| CCCCN(C(=O)c1cc(S(=O)(=O)N2CCCCCC2)ccc1OC)c1c(N)n(CCC)c(=O)[nH]c1=O | inconclusive: 23.1 µM [rising, single point] |  |
